Measurements reported in PubChem BioAssay AID1159578 (Peter MacCallum Cancer Centre, 2015).

- Screen: 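Genome-wide hunt for genes controlling movement of lymphatic endothelial cells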 (primary screen)
- Cell system: human lymphatic endothelial cells
- Knock-down reagent: siRNA pool against human genes, 40 nM
- Duration: 48 h after transfection
- Read-out: 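Cells stained with dye and imaged after a scratch; covered wound area and nuclei counted, duplicates averaged, migration set against mock wells and turned into a robust z-score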
- Reading the numbers: migration robust z-score: higher = faster migration into the scratch; migration relative to mock: higher = more scratch area covered than mock; nuclei per well: higher = more cells in the well
- Hit rule: 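Pools averaging fewer than 3300 nuclei are never called; remaining pools count as changed when migration robust z lies outside -2 to 2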
- Calls: active = migration changed; inactive = no migration change, or too few cells
The whole screen tested about 18,000 reagents; below is a part drawn at random. About 1,030 of all reagents (5.7%) were called active. 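Inactive calls also include pools with fewer than 3300 nuclei, whose migration was not assessed.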 The raw values are shown without normalisation. Entries without a mark were called inactive. No sequences are given here.

no.	gene	migration robust z-score	migration class with cell-count check	migration relative to mock	nuclei per well, duplicate mean
1	CLIP3 (CAP-Gly domain containing linker protein 3)	-1.23	migration z between -2 and 2; enough cells	0.56	6762
2	COPS5 (COP9 signalosome subunit 5)	-0.28	migration z between -2 and 2; enough cells	0.81	5806
3	DNAJC21 (DnaJ heat shock protein family (Hsp40) member C21)	0.57	migration z between -2 and 2; enough cells	1.04	5325
4	ADCY8 (adenylate cyclase 8)	0.44	migration z between -2 and 2; enough cells	1	5924
5	KRT33B (keratin 33B)	-0.41	migration z between -2 and 2; enough cells	0.78	4711
6	PLN (phospholamban)	0.27	migration z between -2 and 2; enough cells	0.96	3580
7	BLZF1 (basic leucine zipper nuclear factor 1)	0.05	migration z between -2 and 2; enough cells	0.82	6088
8	SOCS6 (suppressor of cytokine signaling 6)	1.01	migration z between -2 and 2; enough cells	1	5417
9	FBXL17 (F-box and leucine rich repeat protein 17)	-0.21	migration z between -2 and 2; enough cells	0.76	6130
10	SAMD11 (sterile alpha motif domain containing 11)	-1.7	migration z between -2 and 2; enough cells	0.44	6362
11	COX6B1 (cytochrome c oxidase subunit 6B1)	-9.42	under 3300 nuclei; migration not judged	-1.01	1338
12	STXBP3 (syntaxin binding protein 3)	1.45	migration z between -2 and 2; enough cells	1.26	5426
13	MAGT1 (magnesium transporter 1)	-1.19	migration z between -2 and 2; enough cells	0.58	6986
14	LRRD1 (leucine rich repeats and death domain containing 1)	-1.54	migration z between -2 and 2; enough cells	0.48	3358
15	RARS1 (arginyl-tRNA synthetase 1)	0.86	migration z between -2 and 2; enough cells	0.97	4540
16	VPS26C (VPS26 endosomal protein sorting factor C)	1	migration z between -2 and 2; enough cells	1.14	4816
17	BSN (bassoon presynaptic cytomatrix protein)	0.58	migration z between -2 and 2; enough cells	1.04	6160
18	TUBE1 (tubulin epsilon 1)	0.57	migration z between -2 and 2; enough cells	0.92	6695
19	CSTL1 (cystatin like 1)	1.52	migration z between -2 and 2; enough cells	1.28	5840
20	ZC3H18 (zinc finger CCCH-type containing 18)	0.1	migration z between -2 and 2; enough cells	0.92	5992
21	PSIP1 (PC4 and SRSF1 interacting protein 1)	-0.4	migration z between -2 and 2; enough cells	0.78	5398
22	SLC4A11	-0.92	migration z between -2 and 2; enough cells	0.64	5490
23	LPCAT3 (lysophosphatidylcholine acyltransferase 3)	-1.86	under 3300 nuclei; migration not judged	0.4	2745
24	GMEB1 (glucocorticoid modulatory element binding protein 1)	-3.48	under 3300 nuclei; migration not judged	0.14	3080
25	SLC35B4	-2.12 (active)	migration z below -2; enough cells	0.34	5096
26	SEC31B (SEC31 homolog B, COPII component)	-2.14	under 3300 nuclei; migration not judged	0.32	3285
27	CAV2 (caveolin 2)	0.61	migration z between -2 and 2; enough cells	1.04	5554
28	RXFP2 (relaxin family peptide receptor 2)	-0.44	migration z between -2 and 2; enough cells	0.72	4492
29	TMTC4 (transmembrane O-mannosyltransferase targeting cadherins 4)	0.02	migration z between -2 and 2; enough cells	0.9	4684
30	CCR6 (C-C motif chemokine receptor 6)	-0.13	migration z between -2 and 2; enough cells	0.78	4410
31	SPECC1	1.1	migration z between -2 and 2; enough cells	1.17	6219
32	ASIC3 (acid sensing ion channel subunit 3)	-0.47	migration z between -2 and 2; enough cells	0.72	5594
33	SPN (sialophorin)	0.62	migration z between -2 and 2; enough cells	0.92	4291
34	GBE1 (1,4-alpha-glucan branching enzyme 1)	0.34	migration z between -2 and 2; enough cells	0.87	4761
35	ARMCX3 (armadillo repeat containing X-linked 3)	-0.72	migration z between -2 and 2; enough cells	0.7	4712
36	STX2 (syntaxin 2)	1.29	migration z between -2 and 2; enough cells	1.06	6458
37	PPP6C (protein phosphatase 6 catalytic subunit)	-0.64	migration z between -2 and 2; enough cells	0.68	5978
38	PRPS1L1 (phosphoribosyl pyrophosphate synthetase 1 like 1)	-1.25	migration z between -2 and 2; enough cells	0.56	5284
39	ZFP36L2 (ZFP36 like 2 zinc finger CCCH-type)	-0.92	migration z between -2 and 2; enough cells	0.65	5226
40	FAAP24 (FA core complex associated protein 24)	1.75	migration z between -2 and 2; enough cells	1.32	7071
41	PLA2G10 (phospholipase A2 group X)	-1.82	migration z between -2 and 2; enough cells	0.46	4278
42	TC2N (tandem C2 domains, nuclear)	-1.08	migration z between -2 and 2; enough cells	0.6	4916
43	RTL8C (retrotransposon Gag like 8C)	-2.56 (active)	migration z below -2; enough cells	0.22	6102
44	DCLK3 (doublecortin like kinase 3)	0.57	migration z between -2 and 2; enough cells	0.92	6134
45	GLP1R (glucagon like peptide 1 receptor)	0.08	migration z between -2 and 2; enough cells	0.82	4996
46	TSPAN17 (tetraspanin 17)	0.65	migration z between -2 and 2; enough cells	0.93	6290
47	MARS1 (methionyl-tRNA synthetase 1)	-2.21 (active)	migration z below -2; enough cells	0.38	4832
48	TOR4A (torsin family 4 member A)	1.2	migration z between -2 and 2; enough cells	1.19	6134
49	CHRNB4 (cholinergic receptor nicotinic beta 4 subunit)	-0.36	migration z between -2 and 2; enough cells	0.74	4887
50	GLRX2 (glutaredoxin 2)	1.14	migration z between -2 and 2; enough cells	1.02	7090
51	NTF3 (neurotrophin 3)	-0.88	migration z between -2 and 2; enough cells	0.64	5162
52	CALB1 (calbindin 1)	0.3	migration z between -2 and 2; enough cells	0.97	5608
53	CYP7B1 (cytochrome P450 family 7 subfamily B member 1)	1.32	migration z between -2 and 2; enough cells	1.06	5704
54	LRRC23 (leucine rich repeat containing 23)	0.14	migration z between -2 and 2; enough cells	0.92	7238
55	NCF1 (neutrophil cytosolic factor 1)	-0.59	migration z between -2 and 2; enough cells	0.73	7112
56	P3H2 (prolyl 3-hydroxylase 2)	-0.46	migration z between -2 and 2; enough cells	0.72	4993
57	PURB (purine rich element binding protein B)	-0.34	migration z between -2 and 2; enough cells	0.8	4939
58	SPATA31A7 (SPATA31 subfamily A member 7)	-0.21	migration z between -2 and 2; enough cells	0.84	6038
59	C1QTNF5 (C1q and TNF related 5)	-0.08	migration z between -2 and 2; enough cells	0.86	5686
60	AMPD1 (adenosine monophosphate deaminase 1)	0.52	migration z between -2 and 2; enough cells	0.9	6788
61	HEYL	0.34	migration z between -2 and 2; enough cells	0.87	6552
62	KRTAP10-12 (keratin associated protein 10-12)	-0.06	migration z between -2 and 2; enough cells	0.87	5638
63	ATP1B1 (ATPase Na+/K+ transporting subunit beta 1)	1.04	migration z between -2 and 2; enough cells	1	6294
64	GCDH (glutaryl-CoA dehydrogenase)	-0.86	migration z between -2 and 2; enough cells	0.64	5483
65	GARIN1A (golgi associated RAB2 interactor 1A)	0.6	migration z between -2 and 2; enough cells	1.04	5232
66	FAM167B (family with sequence similarity 167 member B)	-0.44	migration z between -2 and 2; enough cells	0.77	5866
67	PTCD2 (pentatricopeptide repeat domain 2)	-1.84	migration z between -2 and 2; enough cells	0.4	5803
68	CC2D1B (coiled-coil and C2 domain containing 1B)	-0.05	migration z between -2 and 2; enough cells	0.88	7236
69	BKGD (beta-keto-L-gulonate decarboxylase)	-0.52	migration z between -2 and 2; enough cells	0.75	6588
70	PTPN1 (protein tyrosine phosphatase non-receptor type 1)	-0.13	migration z between -2 and 2; enough cells	0.78	6110
71	CYP4V2 (cytochrome P450 family 4 subfamily V member 2)	-0.85	migration z between -2 and 2; enough cells	0.67	5569
72	DMKN (dermokine)	0.16	migration z between -2 and 2; enough cells	0.92	6434
73	GHRL (ghrelin and obestatin prepropeptide)	-0.82	migration z between -2 and 2; enough cells	0.68	4504

4 entries from above, set out differently:
gene	migration robust z-score	migration class with cell-count check	migration relative to mock	nuclei per well, duplicate mean
TMTC4 (transmembrane O-mannosyltransferase targeting cadherins 4)	0.02	migration z between -2 and 2; enough cells	0.9	4684
CCR6 (C-C motif chemokine receptor 6)	-0.13	migration z between -2 and 2; enough cells	0.78	4410
SPECC1	1.1	migration z between -2 and 2; enough cells	1.17	6219
ASIC3 (acid sensing ion channel subunit 3)	-0.47	migration z between -2 and 2; enough cells	0.72	5594
